Assay: Modification of (co)polymer in Brabender blendor, epoxide content by potentiometric titration
Conditions: 40 mmoles peroxide per 100 g of copolymer

Row | Structure (SMILES) | Epoxide content (mmoles/100 g copolymer) (reaction time 2,5 hours, 104-124 °C) | Epoxide content (mmoles/100 g copolymer) (1 hour, blendor temperature per peroxide as in Table 4)
1 | C=CC(C)(C)OOC(=O)OCC(CC)CCCC (centres unmarked) [peroxide 6, 0-(2-ethylhexyl) 0,0-(2-methyl-3-buten-2-yl) monoperoxycarbonate] | 4,4 mmoles/100 g copolymer | –
2 | C=CC(C)(C)OOC(C)(C)c1ccccc1 [peroxide 3, α-(2-methyl-3-buten-2-ylperoxy)isopropylbenzene] | – | 6,9 mmoles/100 g copolymer
